Measurements from patent EP1228058B1, “BENZOPYRANYL GUANIDINE DERIVATIVES, PROCESS FOR PREPARATION THEREOF, AND PHARMACEUTICAL COMPOSITIONS CONTAINING THEM” (Dongbu Hannong Chemical Co., Ltd., priority 1999, dated 2001).

Tests used:
[1] = system: ischemic heart models of rats; test: Heart protective (anti-ischemic) activity in ischemic heart models of anesthetized rats; type: in vivo; conditions: 45 min occlusion, 90 min reperfusion
Experimental: Male rats (350-450 g, obtained from the Experimental Animal Team of the Korea Research Institute of Chemical Technology) were anesthetized by the intraperitoneal injection of pentobarbital at a dose of 75 mg/kg. After trachetomy, the rats were rendered to respire artificially at a rate of 60/min with a stroke volume of 10 ml/kg. Cannulars were inserted into the fermoral vein and the fermoral artery and used for drug administration and blood pressure measurement, respectively.
In the ischemic myocardium damage models, the body temperature has an important influence on the results. To avoid the change in the body temperature, a body temperature measuring probe was inserted into the rectum of each rat and the body temperature was constantly kept at 37 °C with the aid of a homeothermic blanket control unit.
Afterwards, during testing, a continuous measurement was made of the mean arterial blood pressures and heart rates from the rats. For the measurement of the blood pressure, a pressure transducer, such as that manufactured by Grass Ins., MA, U.S.A., identified as Model Statham P23XL, was used. The heart rate was measured by a tachometer, such as that manufactured by Gould Inc., OH, U.S.A., identified as Biotachometer. In addition, all of the changes occurring were continuously recorded through the Gould 2000 chart recorder, manufactured by Gould Inc.
The left coronary artery was occluded according to the Selye H. method as follows. The rats underwent a left thoracotomy operation for partial opening of the chest and the right-side chest was pressurized by the middle finger of the left hand to push the heart out. Immediately after the left anterior descending coronary artery hereinafter referred to as (LAD) was carefully stitched using a suture needle with 5-0 silk ligature, the heart was then repositioned in the thoracic cavity while both ends of the ligature were situated outside. The opposite ligature ends were passed through a PE tube (PE100, 2.5 cm) and allowed to stand loose for 20 min for stabilization. Via the cannula inserted into the femoral vein, vehicles or drugs were administered into the rats which were rendered to stand for 30 min in order to sufficiently elicit the efficacies of the drugs. BMS-180448 was used as a control drug and the i.v.administration dose was 0.3 mg/kg for all test drugs of interest and the control drug.
Next, the PE tube which had the doubled strands of the ligature passed therethrough was pushed toward the heart and then, set upright by tightly pulling end regions of the ligature with a hemostatic pincette while pressing the coronary artery. The PE tube was allowed to stand for 45 min for the occlusion of the coronary artery, followed by the removal of the hemostatic pincette and then, by the reperfusion for 90 min.
After the reocclusion of the coronary artery in accordance with the above procedure, the rats were administered with 2 ml of a 1% Evans blue through an intravenous route. Subsequently, an excess of pentobarbital was intravenously injected to kill the rats, after which the heart was removed and then, deprived of the right ventricle and both atria. The left ventricle was cut horizontally to the heart apex into 5 or 6 slices which were weighed. From the surface of each slice, images were input with the aid of a Hi-scope into a computer installed with an image analyzing program (Image Pro Plus). From the images input into the computer, the area of the normal blood stream tissue region which appeared blue in a computer monitor and the area which appeared colorless were measured. The percentage of the colorless area to the total area of each slice was calculated and multiplied by the weight of each slice to determine the area at risk (AAR) of each slice. […]

[2] = system: ischemic heart models of beagle dogs; test: Heart protective (anti-ischemic) activity in ischemic heart models of anesthetized beagle dogs; type: in vivo; conditions: total dose 2 mg/kg infused i.v. over 40 min, 90 min occlusion, 5 h reperfusion
Experimental: In order to determine whether the compounds of the formula 1 are protective for the ischemic hearts of larger animals, experiments determining the anti-ischemic effects of the compounds on beagle dogs were conducted as follows. The experiments on beagle dogs followed the method of Grover et al.' (G. J. Grover et al., J. Cardiovasc. Pharmacol. 25, 40 (1995)).
After being anesthetized by an intravenous injection of pentobarbital at a dose of 35 mg/kg, male beagle dogs (8-12 kg) were further infused with pentobarbital sodium at a dose of 3-4 mg/kg through the right cephalic vein throughout the experiments, so as to keep the anesthesia constant. […] The heart rate was measured by a tachometer, such as that manufactured by Gould Inc., OH, U.S.A., identified as Biotachometer. In addition, all of the changes occurring during the experiment were continuously recorded through the Gould 2000 chart recorder, manufactured by Gould Inc.
The fifth intercostal space was incised to open the thorax and the LAD was separated from its surrounding tissues. […] The LAD part upstream of the silk ligature was isolated from adjacent tissues and the blood flow was measured quantitatively. […] Using polygraph such as Grass Model 7E, the electrocardiogram was measured and read (Lead II). […]

COC(OC)[C@@]1(C)Oc2ccc([N+](=O)[O-])cc2[C@H](NC(=NC#N)NCc2ccccc2)[C@H]1O [Example 24, (2S, 3R, 4S)-N''-cyano-N-(6-nitro-3,4-dihydro-3-hydroxy-2-methyl-2-dimethoxymethyl-2H-benzopyran-4-yl)-N'-benzylguanidine]
Anti-ischemic Activity (in vivo, rats) (0.3 mg/kg i.v.) AAR/LV (%) [1]: 37.92% | Anti-ischemic Activity (in vivo, dogs) (2 mg/kg/40 i.v.) min,i.v.) AAR/LV (%) [2]: 35.33%

COC(OC)[C@@]1(C)Oc2ccc([N+](=O)[O-])cc2[C@@H](NC(=NC#N)NCc2ccccc2)[C@@H]1O [Example 25, (2S, 3S, 4R)-N''-cyano-N-(6-nitro-3,4-dihydro-3-hydroxy-2-methyl-2-dimethoxymethyl-2H-benzopyran-4-yl)-N'-benzylguanidine]
Anti-ischemic Activity (in vivo, rats) (0.3 mg/kg i.v.) AAR/LV (%) [1]: 36.88%

COC(OC)[C@@]1(C)Oc2ccc(NC(C)=O)cc2[C@@H](NC(=NC#N)NCc2ccccc2)[C@@H]1O [Example 41]
Anti-ischemic Activity (in vivo, rats) (0.3 mg/kg i.v.) AAR/LV (%) [1]: 33.59%

CC1(C)Oc2ccc(C#N)cc2[C@@H](NC(=NC#N)Nc2ccc(Cl)cc2)[C@@H]1O [BMS-180448, reference compound]
Anti-ischemic Activity (in vivo, rats) (0.3 mg/kg i.v.) AAR/LV (%) [1]: 38.83% | Anti-ischemic Activity (in vivo, dogs) (2 mg/kg/40 i.v.) min,i.v.) AAR/LV (%) [2]: 37.73%

COC(OC)[C@@]1(C)Oc2ccc([N+](=O)[O-])cc2[C@H](NC(=NC#N)Nc2ccccc2Cl)[C@H]1O [Example 32, (2S, 3R, 4S)-N''-cyano-N-(6-nitro-3,4-dihydro-3-hydroxy-2-methyl-2-dimethoxymethyl-2H-benzopyran-4-yl)-N'-(2-chlorophenyl)guanidine]
Anti-ischemic Activity (in vivo, rats) (0.3 mg/kg i.v.) AAR/LV (%) [1]: 42.49%

COC(OC)[C@@]1(C)Oc2ccc([N+](=O)[O-])cc2[C@@H](NC(=NC#N)NCc2ccccc2)[C@@H]1OC(C)=O [Example 38, (2S, 3S, 4R)-N''-cyano-N-(6-nitro-3,4-dihydro-3-acetoxy-2-methyl-2-dimethoxymethyl-2H-benzopyran-4-yl)-N'-benzylguanidine]
Anti-ischemic Activity (in vivo, rats) (0.3 mg/kg i.v.) AAR/LV (%) [1]: 38.26%
